Tested on: HeLa-HaloTag-mGluR2
Assay: Extracellular DarT labelling, LFQ proteomics
Format: cell-based, human
Conditions: transfected vs untransfected HeLa

## Cn1c2nc(=O)n(CC(=O)NCCOCCOCCOCCOCCCCCCCl)c(=O)c-2cc2ccccc21 [compound 13]
  Cell-surface proteins as share of the enriched proteins: 30%
5 µM 30 min, diazirine 8 250 µM, 450 nm 15 min, three replicates
  Number of significantly enriched proteins (P < 0.05, log2(fold change) > 1): 169
Diazirine 8 250 µM, 450 nm 15 min
  Number of enriched proteins annotated as cell-surface proteins: 51

Reference: PMC12669049 (Nature Chemistry, 2025)
